Further values from the same series stand in other lists.
How the values were obtained:
Format in all cases: cell-based
[1] = molecular target: Histone-lysine N-methyltransferase EZH2 (Mus musculus) (UniProt Q61188); test: Inhibition of EZH2 in mouse B16-F1 migrating cells assessed as fold change in H3K27me3-buffered regulated Nexn-mRNA expression at 3 uM measured by ChIP-seq analysis relative to control cells
[2] = molecular target: Histone-lysine N-methyltransferase EZH2 (Mus musculus) (UniProt Q61188); test: Inhibition of EZH2 in mouse B16-F1 migrating cells assessed as fold change in H3K27me3-buffered regulated Gm20457-mRNA expression at 3 uM measured by ChIP-seq analysis relative to control cells
[3] = molecular target: Histone-lysine N-methyltransferase EZH2 (Mus musculus) (UniProt Q61188); test: Inhibition of EZH2 in mouse B16-F1 migrating cells assessed as fold change in H3K27me3-dependent regulated Zfp382-mRNA expression at 3 uM measured by ChIP-seq analysis relative to control cells
[4] = molecular target: Histone-lysine N-methyltransferase EZH2 (Mus musculus) (UniProt Q61188); test: Inhibition of EZH2 in mouse B16-F1 migrating cells assessed as fold change in H3K27me3-buffered regulated Zfp57-mRNA expression at 3 uM measured by ChIP-seq analysis relative to control cells
[5] = molecular target: Histone-lysine N-methyltransferase EZH2 (Mus musculus) (UniProt Q61188); test: Inhibition of EZH2 in mouse B16-F1 migrating cells assessed as fold change in H3K27me3-buffered regulated Trim71-mRNA expression at 3 uM measured by ChIP-seq analysis relative to control cells
[6] = molecular target: Histone-lysine N-methyltransferase EZH2 (Mus musculus) (UniProt Q61188); test: Inhibition of EZH2 in mouse B16-F1 migrating cells assessed as fold change in H3K27me3-buffered regulated Mbnl1-mRNA expression at 3 uM measured by ChIP-seq analysis relative to control cells
[7] = molecular target: Histone-lysine N-methyltransferase EZH2 (Mus musculus) (UniProt Q61188); test: Inhibition of EZH2 in mouse B16-F1 migrating cells assessed as fold change in H3K27me3-buffered regulated Zeb2-mRNA expression at 3 uM measured by ChIP-seq analysis relative to control cells
[8] = molecular target: Histone-lysine N-methyltransferase EZH2 (Mus musculus) (UniProt Q61188); test: Inhibition of EZH2 in mouse B16-F1 migrating cells assessed as fold change in H3K27me3-buffered regulated Smc4-mRNA expression at 3 uM measured by ChIP-seq analysis relative to control cells
[9] = molecular target: T1, RNA polymerase II (Mus musculus) (UniProt P08775+Q8CFI7+P97760+A0A3Q4L2S8+Q80UW8+P61219+P62488+Q923G2+P60898+O08740+Q63871+P62876); test: Inhibition of RNA polymerase II in mouse B16-F1 migrating cells assessed as fold change in Pdik1l-RNA stability at 0.1 mM measured by ChIP-seq analysis relative to control cells
[10] = molecular target: T1, RNA polymerase II (Mus musculus); test: Inhibition of RNA polymerase II in mouse B16-F1 migrating cells assessed as fold change in Tmpo-RNA stability at 0.1 mM measured by ChIP-seq analysis relative to control cells
[11] = molecular target: T1, RNA polymerase II (Mus musculus); test: Inhibition of RNA polymerase II in mouse B16-F1 migrating cells assessed as fold change in Lrp10-RNA stability at 0.1 mM measured by ChIP-seq analysis relative to control cells
[12] = molecular target: T1, RNA polymerase II (Mus musculus); test: Inhibition of RNA polymerase II in mouse B16-F1 migrating cells assessed as fold change in Dzip3-RNA stability at 0.1 mM measured by ChIP-seq analysis relative to control cells
[13] = molecular target: T1, RNA polymerase II (Mus musculus); test: Inhibition of RNA polymerase II in mouse B16-F1 migrating cells assessed as fold change in Prelid1-RNA stability at 0.1 mM measured by ChIP-seq analysis relative to control cells
[14] = molecular target: T1, RNA polymerase II (Mus musculus); test: Inhibition of RNA polymerase II in mouse B16-F1 migrating cells assessed as fold change in Naxe-RNA stability at 0.1 mM measured by ChIP-seq analysis relative to control cells
[15] = molecular target: T1, RNA polymerase II (Mus musculus); test: Inhibition of RNA polymerase II in mouse B16-F1 migrating cells assessed as fold change in Mvb12a-RNA stability at 0.1 mM measured by ChIP-seq analysis relative to control cells
[16] = molecular target: T1, RNA polymerase II (Mus musculus); test: Inhibition of RNA polymerase II in mouse B16-F1 migrating cells assessed as fold change in Dtl-RNA stability at 0.1 mM measured by ChIP-seq analysis relative to control cells
[17] = molecular target: T1, RNA polymerase II (Mus musculus); test: Inhibition of RNA polymerase II in mouse B16-F1 migrating cells assessed as fold change in March7-RNA stability at 0.1 mM measured by ChIP-seq analysis relative to control cells
[18] = molecular target: T1, RNA polymerase II (Mus musculus); test: Inhibition of RNA polymerase II in mouse B16-F1 migrating cells assessed as fold change in Pgam1-RNA stability at 0.1 mM measured by ChIP-seq analysis relative to control cells
[19] = molecular target: T1, RNA polymerase II (Mus musculus); test: Inhibition of RNA polymerase II in mouse B16-F1 migrating cells assessed as fold change in Unc13a-RNA stability at 0.1 mM measured by ChIP-seq analysis relative to control cells
[20] = molecular target: T1, RNA polymerase II (Mus musculus); test: Inhibition of RNA polymerase II in mouse B16-F1 migrating cells assessed as fold change in Ufc1-RNA stability at 0.1 mM measured by ChIP-seq analysis relative to control cells
[21] = molecular target: T1, RNA polymerase II (Mus musculus); test: Inhibition of RNA polymerase II in mouse B16-F1 migrating cells assessed as fold change in C330027C09Rik-RNA stability at 0.1 mM measured by ChIP-seq analysis relative to control cells
[22] = molecular target: T1, RNA polymerase II (Mus musculus); test: Inhibition of RNA polymerase II in mouse B16-F1 migrating cells assessed as fold change in Smdt1-RNA stability at 0.1 mM measured by ChIP-seq analysis relative to control cells
[23] = molecular target: T1, RNA polymerase II (Mus musculus); test: Inhibition of RNA polymerase II in mouse B16-F1 migrating cells assessed as fold change in Tex264-RNA stability at 0.1 mM measured by ChIP-seq analysis relative to control cells
[24] = molecular target: T1, RNA polymerase II (Mus musculus); test: Inhibition of RNA polymerase II in mouse B16-F1 migrating cells assessed as fold change in Dlc1-RNA stability at 0.1 mM measured by ChIP-seq analysis relative to control cells
[25] = molecular target: T1, RNA polymerase II (Mus musculus); test: Inhibition of RNA polymerase II in mouse B16-F1 migrating cells assessed as fold change in Arl5a-RNA stability at 0.1 mM measured by ChIP-seq analysis relative to control cells
[26] = molecular target: T1, RNA polymerase II (Mus musculus); test: Inhibition of RNA polymerase II in mouse B16-F1 migrating cells assessed as fold change in Ythdc1-RNA stability at 0.1 mM measured by ChIP-seq analysis relative to control cells
[27] = molecular target: T1, RNA polymerase II (Mus musculus); test: Inhibition of RNA polymerase II in mouse B16-F1 migrating cells assessed as fold change in Cwf19l2-RNA stability at 0.1 mM measured by ChIP-seq analysis relative to control cells
[28] = molecular target: T1, RNA polymerase II (Mus musculus); test: Inhibition of RNA polymerase II in mouse B16-F1 migrating cells assessed as fold change in Nol8-RNA stability at 0.1 mM measured by ChIP-seq analysis relative to control cells
[29] = molecular target: T1, RNA polymerase II (Mus musculus); test: Inhibition of RNA polymerase II in mouse B16-F1 migrating cells assessed as fold change in Eif3f-RNA stability at 0.1 mM measured by ChIP-seq analysis relative to control cells
[30] = molecular target: T1, RNA polymerase II (Mus musculus); test: Inhibition of RNA polymerase II in mouse B16-F1 migrating cells assessed as fold change in Slc19a2-RNA stability at 0.1 mM measured by ChIP-seq analysis relative to control cells

Sequences of proteins named here, by UniProt entry; tags and fusion partners are left off.
UniProt Q61188, whole entry: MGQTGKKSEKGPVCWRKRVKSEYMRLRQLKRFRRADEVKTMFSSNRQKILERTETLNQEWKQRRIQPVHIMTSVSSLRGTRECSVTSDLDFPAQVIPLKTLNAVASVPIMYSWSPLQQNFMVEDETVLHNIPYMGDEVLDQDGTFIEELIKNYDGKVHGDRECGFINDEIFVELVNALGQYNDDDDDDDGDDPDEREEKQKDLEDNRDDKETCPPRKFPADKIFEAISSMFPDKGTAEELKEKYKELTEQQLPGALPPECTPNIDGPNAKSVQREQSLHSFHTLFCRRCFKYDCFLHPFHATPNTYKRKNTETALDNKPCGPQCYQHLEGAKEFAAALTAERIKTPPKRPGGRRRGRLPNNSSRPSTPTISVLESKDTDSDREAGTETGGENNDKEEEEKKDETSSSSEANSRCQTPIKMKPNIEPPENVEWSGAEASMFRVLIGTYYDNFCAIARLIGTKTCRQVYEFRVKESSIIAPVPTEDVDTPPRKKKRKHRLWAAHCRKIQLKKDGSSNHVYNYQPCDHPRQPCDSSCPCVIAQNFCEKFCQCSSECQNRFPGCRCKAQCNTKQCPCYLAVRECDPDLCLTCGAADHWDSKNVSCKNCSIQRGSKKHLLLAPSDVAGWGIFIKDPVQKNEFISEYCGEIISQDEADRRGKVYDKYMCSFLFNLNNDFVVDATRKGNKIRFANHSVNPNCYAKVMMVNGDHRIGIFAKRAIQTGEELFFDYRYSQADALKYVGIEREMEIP

For CCCc1cc(C)[nH]c(=O)c1CNC(=O)c1cc(-c2ccnc(N3CCN(C)CC3)c2)cc2c1cnn2C(C)C, which log2FC [1] is on record?
The log2FC was -0.49.

What about the log2FC [2] of the same compound?
The log2FC was -1.08.

What about the log2FC [3] of the same compound?
The log2FC was -0.35.

What about the log2FC [4] of the same compound?
Its log2FC is -0.7.

What about the log2FC [5] of the same compound?
Its log2FC is -0.61.

And the log2FC [6]?
The log2FC was -0.41.

And the log2FC [7]?
Its log2FC is -0.43.

And the log2FC [8]?
Its log2FC is -0.54.

OC[C@H]1O[C@@H](n2cnc3cc(Cl)c(Cl)cc32)[C@H](O)[C@@H]1O was tested. Which log2FC [9] did it give?
Its log2FC is -0.82.

What about the log2FC [10] of the same compound?
The log2FC was -0.5.

And the log2FC [11]?
Its log2FC is 0.57.

And the log2FC [12]?
Its log2FC is -0.86.

What about the log2FC [13] of the same compound?
The log2FC was 0.43.

And the log2FC [14]?
Its log2FC is 0.5.

And the log2FC [15]?
Its log2FC is 0.58.

And the log2FC [16]?
Its log2FC is -0.6.

And the log2FC [17]?
The log2FC was -0.69.

What about the log2FC [18] of the same compound?
The log2FC was 0.48.

And the log2FC [19]?
Its log2FC is 0.93.

And the log2FC [20]?
The log2FC was 0.4.

What about the log2FC [21] of the same compound?
The log2FC was -0.93.

And the log2FC [22]?
Its log2FC is 0.41.

And the log2FC [23]?
Its log2FC is 0.53.

And the log2FC [24]?
The log2FC was -0.54.

And the log2FC [25]?
The log2FC was -0.46.

What about the log2FC [26] of the same compound?
The log2FC was -0.38.

And the log2FC [27]?
The log2FC was -0.89.

What about the log2FC [28] of the same compound?
The log2FC was -1.07.

And the log2FC [29]?
The log2FC was 0.6.

What about the log2FC [30] of the same compound?
The log2FC was -1.08.

Source: ChEMBL document CHEMBL5674883, “The Heterochromatin Landscape in Migrating Cells and the Importance of H3K27me3 for Associated Transcriptome Alterations” (Cells, 2018)
